From US8632452B2, “Peroxisome proliferator-activator receptor δ (PPARδ) and the development of preimplantation embryos” (Board of Regents of the University of Texas System, priority 2005, dated 2014)
At least one structure is not confirmed: it was looked up by name or label, or the drawing left a doubt.

Test system: preimplantation mouse embryos (wild type, PPARδ+/+)
Assay: Complete hatching of cultured wild type mouse embryos
Format: cell-based
Settings: 1 μM ligand, two-cell embryos (C3B6F1), 96 hrs
From the text: Harvest and culture of mouse embryos. Mice were obtained from the following sources: C3H, 129S1/SvImJ and C57BL6/J, the Jackson laboratory (Bar Harbor, Me., USA); ICR and C57BL6/Nhd, Harlan (Indianapolis, Ind., USA); PPARδ−/−, a gift from Dr. R. Evans (the Salk Institute, La Jolla, Calif.). The wild type (WT) counter parts of PPARδ−/− were bred by mating 129S1/SvImJ and the offspring of C57BL6/J×129S1/SvImJ. Mice were kept in temperature and humidity controlled environment (07:00 light on, 19:00 light off) with free access to food and water. The mouse embryos were harvested and cultured as described previously (Huang et al., 2003). Briefly, three-week old female mice were super-ovulated with intra-peritoneal injection of PMSG (5 IU) followed by hCG (5 IU) 42-46 hrs later. After hCG injection (at 15:00), each female mouse was caged with one male mouse with proven fertility. Unless specified otherwise, embryos (at two-cell stage) were harvested 44-48 hrs later and cultured (17-20 per group) at 37° C. under 5% CO2 in 4-well plates (Nalge Nunc International, Naperville, Ill., USA) containing 600 ul protein-free media. […] Those completely free of the zona pellucida were counted as having completely hatched. The rate of complete hatching was calculated by dividing the number of completely hatched embryos by the number of total embryos. […]

## CC1(COc2ccc(CC3SC(=O)NC3=O)cc2)CCCCC1 (stereo not shown) [ciglitazone]
  complete embryo hatching versus control: Neither Wy14,643, a PPARα ligand, nor ciglitazone, a PPARγ agonist, stimulated embryo hatching
